Assay results: publication PMC5406017
No constants are given. Whether binding was seen depends on the method and setting. In cells and extracts the contact can be indirect. These calls come from enrichment with a bait or labelling near it, and not all partners need be listed.

The chains behind the UniProt entries cited, without tags or fusion partners. Where a name states a change or a piece, a line headed by the entry shows the natural chain unless it says otherwise.
UniProt Q24547: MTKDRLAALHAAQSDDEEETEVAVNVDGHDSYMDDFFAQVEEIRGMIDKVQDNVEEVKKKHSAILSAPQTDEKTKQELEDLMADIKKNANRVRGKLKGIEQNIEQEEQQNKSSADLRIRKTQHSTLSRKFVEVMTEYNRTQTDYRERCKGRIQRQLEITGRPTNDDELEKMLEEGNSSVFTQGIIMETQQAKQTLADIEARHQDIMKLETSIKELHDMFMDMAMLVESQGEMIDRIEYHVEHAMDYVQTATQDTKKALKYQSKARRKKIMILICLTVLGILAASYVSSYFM
UniProt A0A0B4LF19: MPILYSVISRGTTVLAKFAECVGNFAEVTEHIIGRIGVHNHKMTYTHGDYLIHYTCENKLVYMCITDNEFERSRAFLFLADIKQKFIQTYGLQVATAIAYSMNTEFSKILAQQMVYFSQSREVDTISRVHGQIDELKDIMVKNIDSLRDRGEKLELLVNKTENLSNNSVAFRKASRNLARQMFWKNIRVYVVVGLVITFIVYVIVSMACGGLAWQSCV
UniProt Q9VH76: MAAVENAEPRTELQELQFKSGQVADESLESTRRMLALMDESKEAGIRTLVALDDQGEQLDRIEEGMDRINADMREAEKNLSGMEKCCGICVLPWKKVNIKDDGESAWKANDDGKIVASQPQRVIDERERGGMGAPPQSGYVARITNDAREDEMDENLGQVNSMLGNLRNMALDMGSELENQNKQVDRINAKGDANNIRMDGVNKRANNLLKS

B1: Synaptobrevin (protein, UniProt P18489 1-152)
chain: MENNEAPSPSGSNNNDFPILPPPPNANDNYNQFGDHQIRNNNAAQKKLQQTQAKVDEVVGIMRVNVEKVLERDQKLSELGERADQLEQGASQFEQQAGKLKRKQWWANMKMMIILGVIAVVLLIIVLVSVWPSSSDSGSGGGNKAITQAPPH

molecular target: HA tagged Drosophila STX1 (Drosophila) (UniProt Q24547); experiment: affinity purification with mass spectrometry; native immunoprecipitation of HA tagged STX1 on anti-HA resin from cleared lysate of stably expressing Drosophila cells (100 mM NaCl, 5 mM MgCl2, 50 mM Tris pH 7.4, 0.5% Igepal CA-630), eluted with HA-peptide, SDS-PAGE, major bands identified by MALDI-MS / MSMS

Question: How did the binding turn out when VAMP7 (from UniProt A0A0B4LF19) was run?
Answer: Its binding is “binds”.

Question: Which binding does the source give for SNAP24 (from UniProt Q9VH76) here?
Answer: Its binding is “binds”.

Question: Which binding does the source give for B1 here?
Answer: Its binding is “binds”.
